Measurements reported in PubChem BioAssay AID504774 (Drosophila RNAi Screening Center, 2011)
Assay: 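Fly genes whose loss alters survival after alkylation damage to DNA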 (primary screen). Cells: Drosophila Kc167 cells. Reagents: long dsRNA against Drosophila genes, about 0.25 µg dsRNA per well. Timing: about 6 days: 3 days knock-down, then 3 days with or without MMS. Treatment: methyl methanesulphonate 0.004% (w/v) for 3 days after knock-down. Read-out: 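Viability in wells given MMS, read as ATP luminescence, normalised by quantiles plate by plate and averaged across replicates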. Reading the numbers: mean viability with MMS and viability with MMS: higher = more surviving cells after MMS.
The deposit covers about 23,000 reagents; this is a random part of those with a known target gene and a result. 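Values are quantile-normalised luminescence on an arbitrary scale; higher means more cells surviving MMS.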

target | amplicon | mean viability with MMS | viability with MMS, replicate 1 | viability with MMS, replicate 2
H15 | DRSC03339 | 3.46e6 | 3.96e6 | 3.90e6
H15 | DRSC22199 | 3.48e6 | 3.96e6 | 3.96e6
Hrb27C | DRSC03347 | 3.42e6 | 3.70e6 | 3.95e6
TwdlS | DRSC14737 | 3.44e6 | 3.95e6 | 3.81e6
Gr92a | DRSC21631 | 3.47e6 | 3.93e6 | 3.98e6
Fdx2 | DRSC08306 | 3.46e6 | 3.88e6 | 3.98e6
SMC1 | DRSC16846 | 3.80e6 | 4.41e6 | 4.19e6
Prosalpha2 | DRSC16798 | 3.24e6 | 3.82e6 | 3.69e6
Kdm4B | DRSC06862 | 3.20e6 | 3.73e6 | 3.66e6
mRpL3 | DRSC20100 | 3.59e6 | 4.06e6 | 4.06e6
Polr1A | DRSC07535 | 3.51e6 | 3.94e6 | 3.99e6
CG1632 | DRSC17558 | 3.62e6 | 4.08e6 | 4.09e6
CG1632 | DRSC18110 | 3.52e6 | 4.21e6 | 3.80e6
CG15537 | DRSC15073 | 3.56e6 | 4.03e6 | 4.03e6
CG33144 | DRSC06132 | 3.49e6 | 3.94e6 | 3.94e6
CG33144 | DRSC07024 | 3.44e6 | 3.89e6 | 3.94e6
EMC10 | DRSC11850 | 3.51e6 | 4.07e6 | 3.88e6
lawc (retired record) | DRSC22531 | 2.83e6 | 3.67e6 | 3.66e6
lawc (retired record) | DRSC23208 | 3.34e6 | 3.91e6 | 3.69e6
CG12182 | DRSC08142 | 3.30e6 | 3.78e6 | 3.78e6
CG3165 | DRSC00573 | 3.58e6 | 4.12e6 | 4.01e6
CG11791 | DRSC14391 | 3.33e6 | 3.78e6 | 3.81e6
CG7953 | DRSC01902 | 3.49e6 | 3.88e6 | 4.01e6
Ugt37A1 | DRSC02114 | 3.59e6 | 4.00e6 | 4.16e6
CG15172 | DRSC02473 | 3.56e6 | 4.05e6 | 4.04e6
CG13216 | DRSC06338 | 3.58e6 | 3.93e6 | 4.22e6
Cyp313a3 | DRSC16626 | 3.66e6 | 4.13e6 | 4.08e6
CG31419 | DRSC15771 | 3.47e6 | 3.94e6 | 3.93e6

Entries above whose gene name begins with P or p (2):
target | amplicon | mean viability with MMS | viability with MMS, replicate 1 | viability with MMS, replicate 2
Prosalpha2 | DRSC16798 | 3.24e6 | 3.82e6 | 3.69e6
Polr1A | DRSC07535 | 3.51e6 | 3.94e6 | 3.99e6
